Assay results published in patent publication US20230027072A1, “IMPROVED METHODS, KITS, COMPOSITIONS AND DOSING REGIMENS FOR THE USE OF HETEROCYCLIC INHIBITORS OF ERK1 AND ERK2” (Asana Biosciences, LLC, priority 2019, published 2023).
Some entries share one result that the patent states for a list of compounds.

Test system: human melanoma xenograft model (A375) harboring B-RAF V600E mutation
Test: A375 tumor xenograft efficacy study (Example 37)
Assay type: in vivo, mice
Settings: A375, orally 50 mg/kg BID for 19 days

Compound `Cc1cnc(N[C@H]2CCOC2)nc1-n1cnc(C(=O)N[C@H](CN)c2cccc(Cl)c2)c1` [Example 255, N-((S)-2-amino-1-(3-chlorophenyl)ethyl)-1-(5-methyl-2-(((S)-tetrahydrofuran-3-yl)amino)pyrimidin-4-yl)-1H-imidazole-4-carboxamide] has a tumor growth inhibition of 70 to 90%.
